Results on one molecule are retold here after paper PMC9012292.

Protein sequences, listed by entry. Tags and fused reporters are not part of them.
UniProt O55143: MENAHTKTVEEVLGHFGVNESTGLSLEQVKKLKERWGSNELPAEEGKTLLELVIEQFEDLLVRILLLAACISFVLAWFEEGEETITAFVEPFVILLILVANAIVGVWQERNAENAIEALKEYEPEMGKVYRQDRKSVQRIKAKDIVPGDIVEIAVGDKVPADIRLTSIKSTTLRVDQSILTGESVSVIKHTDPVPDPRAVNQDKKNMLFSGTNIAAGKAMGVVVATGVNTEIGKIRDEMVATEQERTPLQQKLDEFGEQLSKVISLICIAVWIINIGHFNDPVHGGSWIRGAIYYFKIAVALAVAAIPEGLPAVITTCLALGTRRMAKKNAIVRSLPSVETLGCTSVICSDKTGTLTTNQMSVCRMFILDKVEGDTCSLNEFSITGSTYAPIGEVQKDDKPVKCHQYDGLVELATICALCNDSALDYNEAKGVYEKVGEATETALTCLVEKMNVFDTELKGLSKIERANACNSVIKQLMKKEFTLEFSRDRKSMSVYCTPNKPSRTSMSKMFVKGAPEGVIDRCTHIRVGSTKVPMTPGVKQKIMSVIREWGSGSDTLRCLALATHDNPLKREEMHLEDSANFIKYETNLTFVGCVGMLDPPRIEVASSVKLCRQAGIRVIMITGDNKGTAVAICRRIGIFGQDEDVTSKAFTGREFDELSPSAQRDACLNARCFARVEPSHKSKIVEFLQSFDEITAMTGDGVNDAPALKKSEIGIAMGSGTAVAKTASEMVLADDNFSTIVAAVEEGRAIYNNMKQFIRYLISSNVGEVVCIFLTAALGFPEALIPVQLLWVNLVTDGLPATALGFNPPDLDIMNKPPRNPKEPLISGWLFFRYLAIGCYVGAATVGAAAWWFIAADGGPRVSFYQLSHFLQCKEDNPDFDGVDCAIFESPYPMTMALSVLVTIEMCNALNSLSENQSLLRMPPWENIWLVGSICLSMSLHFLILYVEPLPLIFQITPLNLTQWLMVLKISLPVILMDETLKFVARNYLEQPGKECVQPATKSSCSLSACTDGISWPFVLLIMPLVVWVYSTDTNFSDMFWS

The assay deals with sarco/ER Ca2+-ATPase 2 (SERCA2) (mouse (endogenous in mouse cortex)) (UniProt O55143). In words: co-IP; mouse cortex tissue lysate; 1 ug Nnat, IP3R or SERCA2 antibody overnight at 4°C, protein G beads 3 hours at 4°C; immunoblot with indicated antibodies.

These are yes or no findings as the source states them, for the method shown. Binding seen in cells or lysates may run through a third protein. Some binding calls cover weakened binding; strength is not graded here.

B1: neuronatin (Nnat) (protein, UniProt Q61979 1-81)
chain: MAAVAAASAELLIIGWYIFRVLLQVFLECCIYWVGFAFRNPPGTQPIARSEVFRYSLQKLAHTVSRTGRQVLGERRQRAPN
B1: the binding entry is recorded as “binds”.
